# In PubChem BioAssay AID504834 (National Center for Advancing Translational Sciences (NCATS), 2011):
# The campaign covered roughly 320,000 compounds. About 22,000 (6.9%) were called active. Inconclusive means that the source gave no clear call. Such entries were picked first, then a sample of the others. Calls come from the whole dose curve; as a rule, active = well fitted inhibition curve with a large enough effect; inconclusive = small, poorly fitted or top-dose-only effect, or another doubt; inactive = no such curve, though single readings can be large or run the other way. Potencies beside an inconclusive call are fits to weak or partial responses and may not hold up.
# Assay: Primary qHTS for delayed death inhibitors of the malarial parasite plastid, 96 hour incubation
# Details: P. falciparum luciferase reporter growth; series mostly up to 28.7 µM; activity change, negative = inhibition: at the top concentration
# Method in brief: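 Two-generation exposure (96 h) targets delayed-death phenotype. Reporter parasites carrying integrated firefly luciferase, in red cells at 2% hematocrit and 0.05% parasitemia final, kept at 37 C, 5% CO2; luminescence loss indicates inhibition.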
# % is set by controls: 0 for no effect and ±100 for the full control effect; potency is the fitted concentration of half-maximal effect.
SMILES,"activity change, negative = inhibition",Potency
CC(C)C(=O)NCC(c1ccc2c(c1)OCO2)N1CCOCC1 (stereo not drawn),inactive: 25.4%,–
COc1ccc(C(=O)O)cc1S(=O)(=O)NCCc1ccccn1,inactive: -11.9%,–
COC(=O)c1ccc(CO/N=C/c2ccc(OC)cc2)o1,inactive: 95.3%,–
Cc1ccccc1C(=O)Nc1ccc(S(=O)(=O)Nc2onc(C)c2C)cc1,inactive: 40.6%,–
COc1ccc(S(=O)(=O)N2CCCCCC2)cc1C(=O)OCc1cccc(OC)c1OC,inactive: -4.52%,–
O=C(Nc1ccc(Cl)cc1)Nc1nc(-c2sccc2Br)cs1,–,active: 9.28 µM
CC(OC(=O)c1cccs1)C(=O)NCc1ccco1 (stereo not drawn),–,"inconclusive: 2.33 µM [inhibitor, single point]"
CCN(CC)CCN(Cc1cc2cccc(C)c2[nH]c1=O)C(=S)Nc1ccccc1,inactive: 7.53%,–
COc1ccc(NC(=S)NNc2ccc([N+](=O)[O-])cc2S(=O)(=O)Nc2ccc(C)cc2C)cc1,–,"inconclusive: 11.7 µM [inhibitor, single point]"
COc1ccc(C2=NS(=O)(=O)N(C)C(C(=O)N3CCN(C)CC3)=C2)cc1,inactive: 28.8%,–
O=C(CCC1CCCC1)NCCCNC(=O)CCC1CCCC1,inactive: 8.07%,–
CC(Sc1nc2cc([N+](=O)[O-])ccc2n1-c1cccc(C(F)(F)F)c1)C(=O)NC(N)=O (stereo not drawn),–,active: 0.657 µM
O=C(Nc1ccc([N+](=O)[O-])cc1)c1ccccc1F,–,"inconclusive: 1.31 µM [inhibitor, partial curve, poor fit]"
CCCN(CC(=O)Nc1ccccc1OC)C(=O)c1ccc2ncsc2c1,inactive: -28.2%,–
O=C(COC(=O)C12CC3CC(CC(C3)C1)C2)Nc1nccs1,inactive: -20.8%,–
CCOc1ccc(/C=C2/SC(=S)N(n3c(C)ccc3C)C2=O)cc1,–,"inconclusive: 18.5 µM [inhibitor, single point]"
COc1ccccc1N1CCN(C(=O)CCC(=O)N2CCN(c3ccccc3OC)CC2)CC1,–,"inconclusive: 18.5 µM [inhibitor, single point]"
O=C(CCNC(=O)OCc1ccccc1)NC1CCCCCC1,inactive: -36.2%,–
O=C1CN(CC(=O)Nc2ccc(SC(F)F)cc2)CCN1,–,"inconclusive: 0.104 µM [inhibitor, full curve, poor fit]"
CC(C)Oc1ccc(C(=O)Nc2ccc3c(c2)n(C)c(=O)n3C)cc1,inactive: 57.9%,–
O=C(CSc1nnc(NC(=O)c2ccco2)s1)Nc1ccc2c(c1)OCCO2,inactive: 52%,–
CCOC(=O)c1nnn(-c2nn3nnnc3c3ccccc23)c1C,inactive: -29.4%,–
COC(=O)c1ccc(C(C(=O)NC2CCCCC2)N(C(=O)Cc2cccs2)C2CC2)cc1 (stereo not drawn),–,"inconclusive: 11.7 µM [inhibitor, single point]"
O=C(c1ccc(F)cc1)N1C2CCC1CC(O)(c1ccccc1F)C2 (stereo not drawn),–,"inconclusive: 9.28 µM [inhibitor, single point]"

SMILES,"activity change, negative = inhibition",Potency
O=C(Nc1cccc(Cl)c1)c1cc(S(=O)(=O)N2CCCCC2)c[nH]1,inactive: 51.3%,–
COc1ccc(S(=O)(=O)CCC(=O)O)cc1,–,"inconclusive: 0.0738 µM [inhibitor, full curve, poor fit]"
CCC(=O)Nc1cc(C)c(NC(=O)CCc2ccccc2)cn1,–,"inconclusive: 16.5 µM [inhibitor, partial curve, poor fit]"
CCN(CC)CCCNC(=O)c1ccc(N2CCCCC2)c(NS(=O)(=O)c2ccc(C)cc2)c1,–,"inconclusive: 4.15 µM [inhibitor, full curve, poor fit]"
CC(C)S(=O)(=O)N1CCCC(C(=O)c2cccc(Cl)c2)C1 (stereo not drawn),–,"inconclusive: 9.28 µM [inhibitor, single point]"
CC1CCC2(CC1)NC(=S)N(C(C)(C)C)N2 (stereo not drawn),–,"inconclusive: 20.8 µM [inhibitor, partial curve, poor fit]"
Cc1cc(NC(=O)CSc2ncccc2C(=O)O)no1,–,"inconclusive: 0.0828 µM [inhibitor, full curve, poor fit]"
CCNC(=O)NC(=O)C(C)OC(=O)c1c(C)nn(Cc2ccccc2)c1Cl (stereo not drawn),–,"inconclusive: 13.1 µM [inhibitor, single point]"
CO/N=C(\c1nonc1N)N1CCN(c2ccc(Cl)cc2[N+](=O)[O-])CC1,–,"inconclusive: 18.5 µM [inhibitor, single point]"
COC(=O)C1CCN(C(=O)NC2CC(=O)N(c3ccc4c(c3)OCCO4)C2)CC1 (stereo not drawn),inactive: 15.2%,–
COC(=O)C1=C(C(=O)OC)[C@@H]2N(C)c3ccccc3[C@@]23C[C@@H](C(=O)OC)N(C(=O)c2ccc(Br)cc2)C3=N1,inactive: 69.4%,–
N#Cc1c(NC(=O)CN2CCN(C(=O)c3ccco3)CC2)sc2c1CCCCC2,–,"inconclusive: 18.5 µM [inhibitor, single point]"
O=C(Nc1cccc(O)c1)N1CCOCC1,–,active: 11.7 µM
O=C(Cc1ccc(Cl)cc1)Nc1ccccc1C(=O)N1CCCC1,–,"inconclusive: 18.5 µM [inhibitor, single point]"
Cc1cc(C)n(-c2nc(Nc3ccccc3C)nc(-n3nc(C)cc3C)n2)n1,–,active: 1.04 µM
Cc1ccc(-c2nc(N3CCN(C)CC3)c3ccccc3n2)cc1,inactive: 31.5%,–
CN(CCCNC(=O)c1ccc(CS(=O)c2ccc(Br)cc2)o1)Cc1ccccc1 (stereo not drawn),–,"inconclusive: 14.7 µM [inhibitor, single point]"
COc1ccc2ccccc2c1/C=N/NC(=O)c1cccc(Br)c1,inactive: 54.3%,–
CCC12CN3CCN(CC(C3)/C1=N\NC(=O)c1ccc(Cl)cc1)C2,–,"inconclusive: 20.8 µM [inhibitor, partial curve, poor fit]"
O=c1c2ccccc2nnn1CSc1nnnn1-c1ccc(O)cc1,inactive: 46.6%,–
Cc1ccc(C(=O)Nc2cccc(C(F)(F)F)c2)cc1NC(=O)c1nccn1C,inactive: 59.7%,–
COc1ccc(N2CCN(C(=O)CSc3nnc(C)c(=O)[nH]3)CC2)cc1,–,"inconclusive: 8.28 µM [inhibitor, partial curve]"
O=[N+]([O-])c1ccc(NC2CCN(Cc3ccccc3)CC2)c2ccncc12,–,"inconclusive: 1.85 µM [inhibitor, full curve]"
COc1ccc(OCCSc2nc(-c3ccccc3)cc(=O)[nH]2)cc1,–,"inconclusive: 18.5 µM [inhibitor, single point]"

# As entered above.
# Potency, COc1ccc(S(=O)(=O)CCC(=O)O)cc1 reads inconclusive: 0.0738 µM [inhibitor, full curve, poor fit]
# activity change, negative = inhibition, O=C(CCNC(=O)OCc1ccccc1)NC1CCCCCC1 reads inactive: -36.2%
